# Source: PMC12040169 (PLOS Biology, 2025)
# Some of the results follow.
# Test system: T1, CTL2-GFP (C. trachomatis L2/434/Bu, GFP-expressing)
# T1 construct: L2/434/Bu, GFP-expressing
# Parameters: species or system HeLa; Intracellular C. trachomatis growth in HeLa cells, bulk GFP fluorescence relative to DMSO
# Conditions: bulk GFP, single well; 28.5 h, 10 µM; inhibitor
row,Structure (SMILES),% of control remaining [%]
1,C=CCn1c(Cc2csc(NC(=O)c3ccc([N+](=O)[O-])cc3)n2)n[nH]c1=S [CBK295290],152.2
2,O=C(O)CCSc1nc2ccccc2nc1C(F)(F)F [CBK107866],80.2644
3,Cc1cc(C)cc(OCc2nnc(SCC(=O)Nc3c(F)cc(F)cc3Br)n2C)c1 [CBK268604],132.468
4,Oc1nsnc1-c1ccccc1 [CBK026014],157.475
5,CCOC(=O)N(C)c1c(CC)nc2ccc(C(=O)N(C)CCCN(C)C)cn12 [CBK146478],133.361
6,OC(COCc1ccccc1)CN1CCN(Cc2ccccc2)CC1 (stereo not drawn) [CBK278297C],100
7,Cc1ccc2[nH]c3c(c2c1)CCNC31CCN(C(=O)[C@@H]2CCCC[C@@H]2C(=O)O)CC1 [CBK047222],114.478
8,O=C(COc1ccccc1)c1cn(CC(=O)N2CCc3ccccc32)c2ccccc12 [CBK267659],133.205
9,[O-][S+](c1ccc(Cl)c(Cl)c1)c1cc2c(N3CCCNCC3)nccc2s1 (stereo not drawn) [CBK038304C],103.604
10,COc1ccc(C(=O)N2CCC3(CCN(C(=O)CC4CCCCC4)C3)C2)cc1OC (stereo not drawn) [CBK131770],104.797
11,O=C1COc2ccccc2CCCCC2(CCCNC2)CN1 (stereo not drawn) [CBK292166],149.967
12,Cc1cc(Cl)ccc1OCCCC(=O)N1CCc2ccccc21 [CBK059016],114.536
13,CCOC(=O)c1c(C)n(-c2ccc(C)cc2)c2ccc(Oc3ncccc3C#N)cc12 [CBK261310],121.323
14,Cc1cc(C)n2ncc(C(=O)N3CCCC3c3ccc(F)cc3)c2n1 (stereo not drawn) [CBK305885],99.7012
15,CC(=O)Nc1ccc(C(=O)CSc2nnc(-c3ccncc3)o2)cc1 [CBK266349],136.013
16,CCCc1ccc(S(=O)(=O)Nc2ccc(C(=O)OC)cc2)cc1 [CBK028682],119.926
17,O=S(=O)(Nc1cccc(-c2cnco2)c1)c1cc(C(F)(F)F)cc(C(F)(F)F)c1 [CBK067127],88.2028
18,Cc1cnccc1-c1c[nH]nc1-c1cccc(CNS(=O)(=O)c2ccc(F)c(F)c2)c1 [CBK285627],111.111
19,Cc1c(C(=O)Nc2ccc(S(=O)(=O)N3CCCCCC3)cc2)oc2ccc(Cl)cc12 [CBK267664],115.132
20,CCCCc1ccc(-c2cc3ncccc3nc2N)cc1 [CBK081198],126.187
21,Cc1nn(CC(=O)NC2CCCC2)c(=O)c2cc3sccc3n12 [CBK284023],88.2167
22,O=C(O)CCc1c(-c2ccccc2)cc2ccccn12 [CBK266308],73.1651
23,C=C(C)CN1CCN(Cc2cnn(C3CCCCC3)c2)CC1 [CBK282828],114.77
24,CC(NS(=O)(=O)c1cc(Cl)ccc1Cl)C(=O)Nc1ccccc1 (stereo not drawn) [CBK267871],100.867
25,S=C(NCCc1ccc(Cl)cc1)NCc1ccco1 [CBK266812],167.674
26,Cc1ccc2cc(CN(Cc3ccco3)C(=O)c3cccs3)c(O)nc2c1 [CBK269274],109.831

row,Structure (SMILES),% of control remaining [%]
1,O=C(c1ccccc1NS(=O)(=O)c1ccc(Br)cc1)N1CCOCC1 [CBK043340],117.606
2,CC(C)(C)C1CCc2onc(C(=O)NCCn3ccnc3)c2C1 (stereo not drawn) [CBK281581],119.641
3,O=C(Nc1cccc(-c2nc3ccccc3s2)c1)c1ccc(S(=O)(=O)N2CCCC2)cc1 [CBK261787],132.89
4,Cc1nn(C)cc1-c1cncn1CCCC(C)(C)CO [CBK281492],128.922
5,Cc1csc(CC(C)n2cc(Cl)cn2)n1 (stereo not drawn) [CBK304797],98.4251
6,O=C(Nc1cccc(C(F)(F)F)c1)c1nc[nH]n1 [CBK027341],108.523
7,CC(=O)c1c(C)[n+]([O-])c2cc(Cl)c(Cl)cc2[n+]1[O-] [CBK265017],100
8,Sc1nnc(-c2ccncc2)n1/N=C/c1cccnc1 [CBK265336],109.68
9,N[C@@H](Cc1c[nH]c2ccccc12)C(=O)N1CC[C@H]2NC(=O)[C@@H](Cc3ccccc3)NC(=O)C3(C/C=C/C[C@@H]2C1)CCOCC3 [CBK292202],112.769
10,Cc1cc2occ(CC(=O)NC3CCCN(C)C3)c2cc1C (stereo not drawn) [CBK282611],103.526
11,COc1cc(CNC(=O)NC(=O)C2CCN(CCc3cccc(O)c3)CC2)cc(OC)c1OC [CBK034857],158.631
12,CS(=O)(=O)N(Cc1ccccc1)c1ccc(C(=O)Nc2ccccc2C(=O)O)cc1 [CBK264117],107.578
13,Cn1nnc(NC(=O)COc2ccc(C3CCCCC3)cc2)n1 [CBK266442],148.283
14,CNC(=O)c1ccc(-c2ccc3[nH]ccc3c2)nc1N(C)C [CBK106146],146.067
15,Cc1cc2c(cc3c(=O)n(CC(=O)N4CCCC4)nc(C)n32)s1 [CBK284065],158.852
16,O=C(CN1CCN(S(=O)(=O)N2CCCCCC2)CC1)Nc1cc(Cl)ccc1Cl [CBK269587],121.292
17,COCCN(CCOC)Cc1c(C)nc2c(C)c(C)ccc2c1O [CBK265031],145.473
18,CC(C)c1ccc(S(=O)(=O)N(c2ccccc2)C2CCNCC2)cc1 [CBK165088T],142.527
19,O=C(Nc1ccc(N2CCN(Cc3ccccc3)CC2)cc1)c1cncc(Br)c1 [CBK267093],197.366
20,CC(=O)c1cc(CN2CCCOC(Cn3cccn3)C2)cs1 (stereo not drawn) [CBK307365],105.033
21,CN1CCN(C(=O)CNS(=O)(=O)c2ccc3ccccc3c2)CC1 [CBK042205],113.473
22,O=C(CSCc1cccc(Cl)c1)Nc1cccnc1 [CBK264114],84.9595
23,CC(=O)Oc1ccc(N2C(=O)CCSC2=S)cc1 [CBK005283],121.453
24,CCC1CCCCN1C(=O)c1cncc(Br)c1 (stereo not drawn) [CBK076699],108.48
25,C=CCn1c(Cc2csc(NC(=O)c3cnc(C)cn3)n2)n[nH]c1=S [CBK295319],140.615

# Some of the entries so far, tab-delimited.
row	Structure (SMILES)	% of control remaining [%]
2	CC(C)(C)C1CCc2onc(C(=O)NCCn3ccnc3)c2C1 (stereo not drawn) [CBK281581]	119.641
3	O=C(Nc1cccc(-c2nc3ccccc3s2)c1)c1ccc(S(=O)(=O)N2CCCC2)cc1 [CBK261787]	132.89
4	Cc1nn(C)cc1-c1cncn1CCCC(C)(C)CO [CBK281492]	128.922
